Patent US12071411B2, “Inhibitors of HIF-2α and methods of use thereof” (ARCUS BIOSCIENCES, INC., priority 2021, dated 2024)
For at least one compound, name, drawing or mass did not settle the structure.

Chains of the proteins cited; added tags and fusions are not shown. Lines headed by an entry give the natural chain unless they say otherwise; changes in a name come on top.
UniProt Q99814: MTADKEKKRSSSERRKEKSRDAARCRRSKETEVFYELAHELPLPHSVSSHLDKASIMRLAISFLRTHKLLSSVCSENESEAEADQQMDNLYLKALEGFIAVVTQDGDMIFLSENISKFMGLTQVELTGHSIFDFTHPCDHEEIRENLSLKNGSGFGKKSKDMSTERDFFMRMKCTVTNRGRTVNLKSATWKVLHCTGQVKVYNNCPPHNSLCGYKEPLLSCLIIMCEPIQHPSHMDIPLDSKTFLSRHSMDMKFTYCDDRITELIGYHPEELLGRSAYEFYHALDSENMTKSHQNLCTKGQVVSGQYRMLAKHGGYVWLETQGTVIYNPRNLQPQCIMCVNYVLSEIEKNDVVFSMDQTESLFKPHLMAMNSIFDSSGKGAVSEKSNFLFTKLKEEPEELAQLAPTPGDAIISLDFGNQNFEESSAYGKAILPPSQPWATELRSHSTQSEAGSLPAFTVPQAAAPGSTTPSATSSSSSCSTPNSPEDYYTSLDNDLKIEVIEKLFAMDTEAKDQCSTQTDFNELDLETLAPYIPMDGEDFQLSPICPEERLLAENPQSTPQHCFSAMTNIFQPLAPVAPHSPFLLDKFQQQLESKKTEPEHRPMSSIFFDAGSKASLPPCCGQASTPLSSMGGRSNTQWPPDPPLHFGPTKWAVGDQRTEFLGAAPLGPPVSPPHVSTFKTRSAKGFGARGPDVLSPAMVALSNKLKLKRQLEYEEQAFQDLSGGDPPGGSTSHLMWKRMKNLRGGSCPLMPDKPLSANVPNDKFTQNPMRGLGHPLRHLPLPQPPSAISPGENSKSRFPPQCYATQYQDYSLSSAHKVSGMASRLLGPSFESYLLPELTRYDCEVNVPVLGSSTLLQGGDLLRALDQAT

Biological target: HIF-2α (Homo sapiens, UniProt Q99814)
Experiment: HIF-2α Luciferase Reporter Assay (serum), HRE-luciferase 786-0 cells in 100% human serum
Type: cell-based
Settings: ratio of IC50 in 100% serum to IC50 in serum free conditions
Experimental: Generation of HIF-2α Luciferase 786-0 Cell Line:
Stable cell lines were generated by transducing 786-0 cells (ATCC, CRL-1932) with Cignal Lenti HIF Luc Reporter lentivirus (CLS-007L, Qiagen) according to the manufacturer's guidelines. In brief, 0.3×10^6 786-0 cells were transduced with lentivirus at a multiplicity of infection (MOI) of 25 for 24 hours. After transduction, cells were replenished with fresh RPMI 1640 Medium (Cat. No. 11875085, Thermo Fisher) supplemented with 10% FBS (Cat. No. A3160502, Gibco), 2 mM GlutaMAX™ (Cat. No. 35050-061, Invitrogen) and 100 units of penicillin and 100 μg of streptomycin/mL (Cat. No 15070063, Thermo Fisher) for another 24 hours. Antibiotic selection was performed in cell media containing 4 μg/mL of puromycin. After 7 days of antibiotic selection, stable pools of surviving cells were expanded and used in a luciferase reporter assay.
HIF-2α Luciferase Reporter Assay (Serum):
An HRE-luciferase stable reporter 786-0 cell line was maintained in active culture using RPMI 1640 (GIBCO) media supplemented with 1% penicillin-streptomycin, 1% GlutaMAX™, 10% FBS-One Shot (GIBCO) and 4 ug/ml of puromycin (Invitrogen). […] 40 ul/well of ONE-Glo™ reagent was added and allowed to incubate for 10 minutes before reading the luminescence signal on the Envision (PerkinElmer). Data was analyzed using 4-parameter logistic equation to generate IC50.

CO[C@H](CCn1nc(C(F)(F)F)c2c1CC(F)(F)[C@H]2O)C(F)(F)F [Example 61, (4S)-5,5-difluoro-1-[(3R)-4,4,4-trifluoro-3-methoxybutyl]-3-(trifluoromethyl)-4,6-dihydrocyclopenta[c]pyrazol-4-ol]
Serum Shift (approximate): 5
